According to patent US7655420B2, “Methods to increase or decrease bone density” (Celltech R & D, Inc., priority 2002, dated 2010):
At least one structure is not confirmed: it was looked up by name or label, or the drawing left a doubt.

Legend:
SOST expression [1] = test: SOST expression in hMSC cells and primary human osteoblasts treated with growth factors and hormones (RT-PCR); assay type: cell-based; conditions: hMSC cells, 72 hrs; vit D 10^−7M, RA 10^−6M, DEX 10^−7M
Protocol: (§1) As immature osteoblasts differentiate and become capable of mineralization, they express markers associated with the osteoblast phenotype (type I collagen and parathyroid hormone receptor (PTHr)). These markers were used to ascertain whether differentiation had occurred so that the influence of growth factors and hormones could be correlated with the stage differentiation as well as the level of SOST expression.
(§2) Human mesenchymal cells and primary human osteoblasts were plated in regular growth media containing 2% FCS at a density of 10,000 cells 1 cm^2. Test reagents (10^−7 M dexamethasone, 10^−6 M retinoic acid, 10 ng/ml TGF-β1, PTH (10^−8 M), 10 or 50 ng/ml IGF-1, 10^−7 M1,25-dihydroxyvitamin D3, and 50 to 300 ng/ml of bone morphogenetic proteins 2, 4 or 6) were added singly or in combination on the following day.

noggin expression = noggin expression in hMSC cells treated with BMPs and steroids (RT-PCR); assay type: cell-based, human; conditions: 72 hrs
Protocol: as §1, §2

gremlin expression = gremlin expression in hMSC cells treated with BMPs and steroids (RT-PCR); assay type: cell-based, human; conditions: 72 hrs
Protocol: as §1, §2

SOST expression [2] = test: BMP-6 induction of SOST expression in hMSC cells with test compounds (RT-PCR); assay type: cell-based, human; conditions: for induction of SOST expression by BMP-6 (BMP-induced SOST expression): 72 hrs, no single concentration stated in the sentence; for Results (effect on BMP-6 induction of SOST expression): BMP-6, 72 hrs
Protocol: The previous example illustrates that SOST expression was enhanced by bone morphogenetic proteins and modulated by steroids such as dexamethasone. In this example, human MSC cells were incubated with bone morphogenetic proteins in the presence of various test agents to determine whether other steroids and compounds could affect the BMP-induction of SOST. SOST expression was monitored by reverse transcriptase polymerase chain reaction (RT-PCR).
Human mesenchymal cells (hMSCs) were plated in regular growth media containing 2% FCS and treated with BMP-6 either alone or in combination with the test compounds. The cells were harvested 72 hrs later and RNA was prepared for RT-PCR analysis of SOST expression.

| Compound | SOST expression, steroid added in combination with BMP-4 versus BMP-4 alone (SOST expression [1]) | noggin expression, factor alone (noggin expression) | BMP-4 induced gremlin expression, steroid added with BMP-4 (gremlin expression; BMP-4 100 ng/ml) | gremlin expression, factor alone (gremlin expression; RT-PCR) | induction of SOST expression by BMP-6 (BMP-induced SOST expression) (SOST expression [2]) | induction of SOST expression by BMP-6 (BMP-induced SOST expression) (SOST expression [2]; listed as ursodeoxycholic acid) | Results (effect on BMP-6 induction of SOST expression) (SOST expression [2]; compound at 1 × 10^−6 M) | Results (effect on BMP-6 induction of SOST expression) (SOST expression [2]; compound at 3 × 10^−6 M) | Results (effect on BMP-6 induction of SOST expression) (SOST expression [2]; compound at 3 × 10^−6 M, listed as ursodeoxycholic acid) |
| --- | --- | --- | --- | --- | --- | --- | --- | --- | --- |
| CC1=C(/C=C/C(C)=C/C=C/C(C)=C/C(=O)O)C(C)(C)CCC1 [retinoic acid] | enhanced | increase | diminished | unchanged |  |  |  |  |  |
| C[C@H](CCC(=O)O)[C@H]1CC[C@H]2[C@@H]3[C@@H](O)C[C@@H]4C[C@H](O)CC[C@]4(C)[C@H]3CC[C@]12C [Ursodeoxycholic acid] |  |  |  |  | blocked the BMP-6 induction of SOST in a dose-dependent manner | blocks | Inhibition | Inhibition | completely blocked |
